Binding data for one substance are collected here from paper doi:10.1101/153304.

Amino acid sequences for entries named in this document (tags omitted).
UniProt Q99996: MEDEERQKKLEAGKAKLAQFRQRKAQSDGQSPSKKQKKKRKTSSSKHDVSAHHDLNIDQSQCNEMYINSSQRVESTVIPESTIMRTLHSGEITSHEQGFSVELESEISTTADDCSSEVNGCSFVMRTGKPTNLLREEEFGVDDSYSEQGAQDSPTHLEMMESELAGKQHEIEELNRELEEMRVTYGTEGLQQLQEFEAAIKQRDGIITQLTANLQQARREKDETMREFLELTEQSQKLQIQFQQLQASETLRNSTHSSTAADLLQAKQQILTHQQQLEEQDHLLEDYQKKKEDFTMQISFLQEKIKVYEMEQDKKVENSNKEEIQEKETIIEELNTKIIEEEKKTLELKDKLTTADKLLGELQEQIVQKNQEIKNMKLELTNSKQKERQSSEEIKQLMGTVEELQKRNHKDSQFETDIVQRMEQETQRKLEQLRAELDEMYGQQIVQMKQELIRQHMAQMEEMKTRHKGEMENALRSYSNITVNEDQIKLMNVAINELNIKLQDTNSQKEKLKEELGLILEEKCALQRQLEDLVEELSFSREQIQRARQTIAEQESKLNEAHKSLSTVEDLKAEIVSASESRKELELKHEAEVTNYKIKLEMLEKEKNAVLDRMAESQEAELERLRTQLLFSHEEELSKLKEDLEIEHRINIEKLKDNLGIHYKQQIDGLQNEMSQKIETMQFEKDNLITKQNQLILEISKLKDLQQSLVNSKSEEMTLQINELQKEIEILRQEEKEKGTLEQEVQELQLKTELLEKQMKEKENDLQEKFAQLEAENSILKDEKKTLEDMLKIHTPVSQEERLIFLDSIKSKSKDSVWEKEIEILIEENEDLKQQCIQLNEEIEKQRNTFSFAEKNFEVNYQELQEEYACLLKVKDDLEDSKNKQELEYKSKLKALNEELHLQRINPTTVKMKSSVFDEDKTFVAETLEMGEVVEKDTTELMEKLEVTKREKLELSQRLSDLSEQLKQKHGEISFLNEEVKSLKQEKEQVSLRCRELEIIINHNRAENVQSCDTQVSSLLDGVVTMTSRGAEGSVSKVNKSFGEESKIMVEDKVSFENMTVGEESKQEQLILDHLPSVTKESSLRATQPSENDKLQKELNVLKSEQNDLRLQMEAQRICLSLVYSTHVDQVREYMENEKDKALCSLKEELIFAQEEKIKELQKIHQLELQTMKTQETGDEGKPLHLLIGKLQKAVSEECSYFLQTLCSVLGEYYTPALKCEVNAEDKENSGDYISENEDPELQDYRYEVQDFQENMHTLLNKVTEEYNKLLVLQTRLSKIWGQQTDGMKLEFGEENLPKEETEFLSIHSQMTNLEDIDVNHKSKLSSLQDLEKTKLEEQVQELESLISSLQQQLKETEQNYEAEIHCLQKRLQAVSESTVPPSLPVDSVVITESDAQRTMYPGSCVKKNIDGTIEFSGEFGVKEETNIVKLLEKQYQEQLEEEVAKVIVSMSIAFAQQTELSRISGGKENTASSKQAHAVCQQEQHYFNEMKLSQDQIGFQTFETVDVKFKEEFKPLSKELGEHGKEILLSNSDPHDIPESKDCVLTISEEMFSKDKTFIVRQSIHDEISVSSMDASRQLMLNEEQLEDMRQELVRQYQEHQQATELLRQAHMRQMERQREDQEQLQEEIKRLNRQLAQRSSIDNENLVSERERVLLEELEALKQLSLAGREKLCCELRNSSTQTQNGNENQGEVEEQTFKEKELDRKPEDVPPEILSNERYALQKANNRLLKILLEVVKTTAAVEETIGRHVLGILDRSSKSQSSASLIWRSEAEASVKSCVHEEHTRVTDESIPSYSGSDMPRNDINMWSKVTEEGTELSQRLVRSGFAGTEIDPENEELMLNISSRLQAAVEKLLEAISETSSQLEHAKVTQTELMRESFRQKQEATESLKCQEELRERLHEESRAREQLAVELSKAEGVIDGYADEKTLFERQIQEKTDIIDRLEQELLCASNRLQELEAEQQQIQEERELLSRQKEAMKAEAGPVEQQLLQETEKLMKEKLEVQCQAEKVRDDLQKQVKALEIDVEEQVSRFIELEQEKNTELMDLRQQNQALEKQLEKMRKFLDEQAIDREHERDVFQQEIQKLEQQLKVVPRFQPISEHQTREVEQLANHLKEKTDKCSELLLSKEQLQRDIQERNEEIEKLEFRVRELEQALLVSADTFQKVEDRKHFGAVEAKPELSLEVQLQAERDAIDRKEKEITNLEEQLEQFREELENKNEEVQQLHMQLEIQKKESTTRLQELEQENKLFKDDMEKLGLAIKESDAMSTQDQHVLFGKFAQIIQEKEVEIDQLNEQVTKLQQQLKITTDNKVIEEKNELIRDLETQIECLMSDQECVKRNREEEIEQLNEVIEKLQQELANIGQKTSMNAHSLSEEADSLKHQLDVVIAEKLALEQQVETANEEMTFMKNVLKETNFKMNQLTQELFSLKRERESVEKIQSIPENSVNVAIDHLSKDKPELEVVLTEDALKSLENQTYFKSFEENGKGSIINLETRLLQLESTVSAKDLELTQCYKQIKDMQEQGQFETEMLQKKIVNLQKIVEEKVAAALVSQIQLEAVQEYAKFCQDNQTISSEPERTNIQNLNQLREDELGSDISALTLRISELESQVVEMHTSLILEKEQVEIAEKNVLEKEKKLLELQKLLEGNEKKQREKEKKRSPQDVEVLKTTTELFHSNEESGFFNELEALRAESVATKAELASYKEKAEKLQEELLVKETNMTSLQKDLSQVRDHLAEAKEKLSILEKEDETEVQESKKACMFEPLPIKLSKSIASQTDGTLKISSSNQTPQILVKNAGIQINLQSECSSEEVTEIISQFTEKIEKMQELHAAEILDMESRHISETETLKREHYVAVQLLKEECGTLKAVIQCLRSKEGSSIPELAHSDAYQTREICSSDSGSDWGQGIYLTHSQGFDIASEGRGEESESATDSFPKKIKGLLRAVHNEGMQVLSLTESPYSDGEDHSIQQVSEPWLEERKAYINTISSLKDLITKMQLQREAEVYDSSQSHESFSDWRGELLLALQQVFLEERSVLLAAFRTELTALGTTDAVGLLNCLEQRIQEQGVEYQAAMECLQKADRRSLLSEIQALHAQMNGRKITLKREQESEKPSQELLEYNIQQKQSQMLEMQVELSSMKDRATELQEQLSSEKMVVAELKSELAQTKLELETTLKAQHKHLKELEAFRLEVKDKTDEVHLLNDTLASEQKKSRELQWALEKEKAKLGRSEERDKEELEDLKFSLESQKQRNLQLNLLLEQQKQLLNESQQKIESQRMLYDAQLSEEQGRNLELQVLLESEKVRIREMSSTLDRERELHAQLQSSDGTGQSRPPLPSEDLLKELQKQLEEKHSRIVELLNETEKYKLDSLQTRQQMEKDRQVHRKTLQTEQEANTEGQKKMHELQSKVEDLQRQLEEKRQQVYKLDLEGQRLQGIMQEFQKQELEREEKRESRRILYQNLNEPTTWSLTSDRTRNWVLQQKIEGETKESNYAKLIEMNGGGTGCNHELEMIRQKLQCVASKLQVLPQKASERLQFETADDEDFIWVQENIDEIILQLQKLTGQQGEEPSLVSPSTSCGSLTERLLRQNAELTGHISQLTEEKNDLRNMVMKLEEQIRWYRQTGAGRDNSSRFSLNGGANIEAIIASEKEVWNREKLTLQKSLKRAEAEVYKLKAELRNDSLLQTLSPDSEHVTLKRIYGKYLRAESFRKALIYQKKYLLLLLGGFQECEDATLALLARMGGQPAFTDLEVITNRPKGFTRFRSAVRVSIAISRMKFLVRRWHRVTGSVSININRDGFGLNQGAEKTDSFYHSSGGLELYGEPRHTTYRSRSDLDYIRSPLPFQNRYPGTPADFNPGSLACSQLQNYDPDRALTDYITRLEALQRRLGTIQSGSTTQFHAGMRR
UniProt Q96SN8: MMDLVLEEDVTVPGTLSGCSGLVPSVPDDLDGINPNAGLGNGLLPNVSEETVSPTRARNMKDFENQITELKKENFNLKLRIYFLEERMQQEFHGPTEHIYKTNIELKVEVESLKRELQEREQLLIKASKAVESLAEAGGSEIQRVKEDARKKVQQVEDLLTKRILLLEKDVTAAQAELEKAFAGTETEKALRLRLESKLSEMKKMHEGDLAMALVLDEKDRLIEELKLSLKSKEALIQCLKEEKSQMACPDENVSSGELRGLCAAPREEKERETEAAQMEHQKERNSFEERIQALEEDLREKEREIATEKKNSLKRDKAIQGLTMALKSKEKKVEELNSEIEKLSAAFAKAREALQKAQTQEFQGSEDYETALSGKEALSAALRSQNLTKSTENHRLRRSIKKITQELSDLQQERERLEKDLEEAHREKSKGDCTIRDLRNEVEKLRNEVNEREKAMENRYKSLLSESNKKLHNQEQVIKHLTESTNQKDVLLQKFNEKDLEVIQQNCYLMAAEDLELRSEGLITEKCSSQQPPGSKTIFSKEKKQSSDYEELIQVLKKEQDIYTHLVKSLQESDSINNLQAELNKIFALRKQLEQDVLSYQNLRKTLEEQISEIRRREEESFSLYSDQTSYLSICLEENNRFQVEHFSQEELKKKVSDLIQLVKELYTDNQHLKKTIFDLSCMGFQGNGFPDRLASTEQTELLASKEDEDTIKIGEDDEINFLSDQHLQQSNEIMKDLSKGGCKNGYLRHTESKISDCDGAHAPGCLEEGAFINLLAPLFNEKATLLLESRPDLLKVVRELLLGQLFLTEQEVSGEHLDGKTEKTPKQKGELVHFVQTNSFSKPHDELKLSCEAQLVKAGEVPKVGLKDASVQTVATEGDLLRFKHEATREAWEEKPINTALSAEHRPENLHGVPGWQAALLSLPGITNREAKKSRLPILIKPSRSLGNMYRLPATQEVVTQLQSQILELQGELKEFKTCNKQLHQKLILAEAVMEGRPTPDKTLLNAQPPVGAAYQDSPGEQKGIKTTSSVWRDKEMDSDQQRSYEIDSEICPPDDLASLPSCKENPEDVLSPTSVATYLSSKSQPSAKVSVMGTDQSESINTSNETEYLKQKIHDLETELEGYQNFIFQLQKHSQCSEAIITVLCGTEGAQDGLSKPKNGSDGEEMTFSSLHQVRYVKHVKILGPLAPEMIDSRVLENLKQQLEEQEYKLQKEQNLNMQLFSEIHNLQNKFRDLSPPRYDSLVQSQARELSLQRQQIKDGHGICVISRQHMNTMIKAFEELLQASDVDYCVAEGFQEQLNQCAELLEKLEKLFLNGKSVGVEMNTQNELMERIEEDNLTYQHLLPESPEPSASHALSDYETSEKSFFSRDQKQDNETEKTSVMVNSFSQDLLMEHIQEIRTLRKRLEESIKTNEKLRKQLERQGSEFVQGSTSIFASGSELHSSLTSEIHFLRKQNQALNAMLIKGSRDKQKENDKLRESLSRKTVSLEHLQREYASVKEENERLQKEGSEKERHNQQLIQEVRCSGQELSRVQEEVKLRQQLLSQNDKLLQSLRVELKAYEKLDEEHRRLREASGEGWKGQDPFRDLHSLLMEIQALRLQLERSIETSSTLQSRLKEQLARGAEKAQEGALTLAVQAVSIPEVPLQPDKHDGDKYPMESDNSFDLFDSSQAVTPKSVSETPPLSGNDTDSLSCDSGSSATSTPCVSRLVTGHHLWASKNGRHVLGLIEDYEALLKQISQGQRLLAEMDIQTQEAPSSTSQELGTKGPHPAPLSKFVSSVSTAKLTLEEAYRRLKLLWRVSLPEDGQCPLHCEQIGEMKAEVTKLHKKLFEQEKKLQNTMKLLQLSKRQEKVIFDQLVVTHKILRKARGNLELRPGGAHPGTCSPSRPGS

Assay [1] deals with AKAP450 (human (endogenous in hTERT-RPE1 or HeLa; cell line of the co-IP not stated)) (UniProt Q99996). Description: co-IP.
The target of assay [2] is Pericentrin (human (endogenous in hTERT-RPE1 or HeLa; cell line of the co-IP not stated)) (UniProt O95613). As to the kind of experiment: co-IP.

No constants are given. Whether binding was seen depends on the method and setting. Binding seen in cells or lysates may run through a third protein. Some results given as binding are weak or reduced against the parent protein; the word gives no strength.

For the substance CDK5Rap2 (from UniProt Q96SN8 1-1893), the binding entry in assay [1] and in assay [2] was “binds” each time.
